# Results from one PubChem assay

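A cell-based FRET test of anthrax lethal toxin entry, tracked through the 460 nm emission signal; the cell line is not named here. Each compound was tested as a concentration series from about 0.0005 to 40 µM. The number is the fitted AC50 of the 460 nm signal alone; lower values mean a more potent effect. A falling signal goes with compounds filed as inhibitors or cytotoxic, a rising one with activators or fluorescent compounds (inferred from the filed classes).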

Values are in µM. Common to all entries: measured here: 460 nm channel. Part of the compounds only, not a random draw; the main read-out is not listed here. A potency from a partial, single-point or poor curve is only a rough figure. The first word of each remark tells which way the curve ran; it can be opposite to the aim of the assay.

Compound	AC50 (µM)	curve
O=C(CCS(=O)(=O)c1cccs1)N1CCN(c2ccc(F)cc2)CC1	5.012	rising, single point
CCCCCCCCC(=O)NCc1cc(OC)c(O)cc1I	25.12	falling, single point
COc1ccccc1NC(=O)c1oc2ccc(C)cc2c1C	31.62	falling, single point
COc1ccc(O)c(C(=O)c2cc(C#N)c(=O)n(-c3c(C)n(C)n(-c4ccccc4)c3=O)c2)c1	15.85	rising, partial curve
CNc1cc(OC)c(C(=O)N[C@@H]2CCN(Cc3ccccc3)[C@H]2C)cc1Cl	15.85	falling, partial curve
CC(C)=C1C(=O)C(c2ccccc2)=C2CN3C(=O)N(CCc4ccccc4)C(=O)[C@]3(Cc3ccccc3)[C@H]21	15.85	falling, single point
CCOC(=O)c1sc2nc(SCC(=O)NCc3ccco3)n(Cc3ccccc3)c(=O)c2c1C	7.943	falling, partial curve, poor fit
CCOC(=O)c1c(NC(=O)Cn2nnc3ccccc32)sc2c1CCC(C)C2 (stereo not shown)	5.012	falling, single point
Cc1cc(C)c(C)c(OCC(=O)NCc2nc(-c3ccccc3)no2)c1	0.1585	falling, full curve, poor fit
COC(=O)[C@@]1(Cc2ccc(OC)cc2)[C@@H]2[C@@H](CC(=O)[C@H]2CC(=O)C(=O)N2CCCC2)CN1C(=O)c1ccccc1	10	rising, single point
CC(=O)OCC1OC(C#Cc2ccc(C)cc2C)C=CC1OC(C)=O (stereo not shown)	3.162	rising, single point
Nc1nc(SCCc2ccccc2)c2[nH]cnc2n1	1	falling, single point
Nc1c(C(=O)NCc2ccc3c(c2)OCO3)c2nc3ccccc3nc2n1CCCN1CCOCC1	12.59	rising, partial curve
Cn1c(=O)n(CC(=O)NCc2cccnc2)c2ccccc21	0.1259	falling, partial curve
COc1cccc(Nc2ncc3nc(-c4ccc(Cl)cc4)c(=O)n(C4CC4)c3n2)c1	2.512	rising, partial curve
C[C@@H](N)Cc1cnc[nH]1	12.59	falling, single point
CCCc1[nH]nc2c1C(C1CC=CCC1)C(C#N)=C(N)O2 (stereo not shown)	2.512	rising, partial curve
Clc1cnc(Oc2ccc(Oc3ncc(Cl)cc3Cl)cc2)c(Cl)c1	12.59	falling, partial curve
CCOc1ccccc1N1CCN(S(=O)(=O)c2ccc(Cl)s2)CC1	12.59	falling, single point
O=C(CSc1nnc(-c2cccs2)n1-c1ccccc1)NCc1ccc2c(c1)OCO2	10	rising, partial curve
Cn1c(=NC(=O)CSCC(=O)N2CCOCC2)sc2ccccc21	5.012	rising, single point
Cc1cc(O)c2c(c1)C(=O)c1cc(O)cc(O)c1C2=O	19.95	falling, partial curve, poor fit
CCOC(=O)N1CCC(N2Cc3cccc(C(=O)NCc4ccc(C)cc4)c3C2=O)CC1	1.995	rising, full curve, poor fit
CCN(CC)S(=O)(=O)c1ccc(C(=O)C(C#N)c2ccccn2)cc1 (stereo not shown)	3.162	falling, single point
c1ccc(CN2CC[C@@]3(CCCNC3)C2)cc1	10	falling, partial curve
CN1CCCN(C)C1c1cc([N+](=O)[O-])ccc1O	5.012	rising, single point
CCc1c(C)c2ccc(OCC(=O)N(C)C)c(C)c2oc1=O	25.12	rising, single point
COc1ccc(OC)c(CN(CCCN2CCOCC2)S(=O)(=O)c2ccc(NC(C)=O)cc2)c1	25.12	rising, single point
N#CCCn1c(=O)c(-c2ccccc2)nc2cnc(N3CCOCC3)nc21	10	rising, partial curve
CCOC(=O)c1c(N)nn(C(=O)CC)c1-c1ccccc1	0.01585	falling, full curve, poor fit
CC1=C(/C=C/C(C)=C/C=C/C(C)=C/C=O)C(C)(C)CCC1	1.259	falling, full curve
CCOc1ccccc1NC(=O)CSc1nnc(-c2cnccn2)n1CC	10	rising, single point
Cc1ccc(N2CCCn3c2nc2c3c(=O)n(CC(=O)OCc3ccccc3)c(=O)n2C)cc1C	6.31	rising, partial curve
C=C(C)CSc1nc(C)c(Cc2ccccc2)c(=O)[nH]1	12.59	rising, partial curve
Cc1nn(C(=O)c2ccoc2C)c(N)c1-c1ccccc1	6.31	falling, partial curve
COc1ccc(Oc2ncc3nc(-c4ccc(Cl)cc4)c(=O)n(C4CC4)c3n2)cc1	1.995	falling, full curve
CCOC(=O)CNC(=O)C(Cc1ccccc1)NS(=O)(=O)c1cccs1 (stereo not shown)	25.12	rising, single point
COc1ccc2c(c1)CCc1c(C(=O)NCc3ccc(F)cc3)noc1-2	0.1995	falling, full curve, poor fit
CN1CCc2cccc3c2[C@@H]1Cc1ccc(O)c(O)c1-3	12.59	falling, partial curve, poor fit
CC(C)(C)N(C=C(Cl)Cl)C(=O)NC1CCCCC1	0.1995	falling, partial curve
Oc1c(Cl)cc(Cl)cc1Sc1cc(Cl)cc(Cl)c1O	3.981	falling, full curve
CCCN1CCC2(CC1)NC(CO)(CO)CO2	5.012	falling, single point
Cn1c(=O)c2[nH]cnc2n(C)c1=O.[CH2-][C@H](Cc1cccc2cc(C(=O)O)c(=O)oc12)OC.[Hg].[OH-]	2.512	rising, single point

The last 5 entries again:

| Compound | AC50 (µM) | curve |
|---|---|---|
| `CN1CCc2cccc3c2[C@@H]1Cc1ccc(O)c(O)c1-3` | 12.59 | falling, partial curve, poor fit |
| `CC(C)(C)N(C=C(Cl)Cl)C(=O)NC1CCCCC1` | 0.1995 | falling, partial curve |
| `Oc1c(Cl)cc(Cl)cc1Sc1cc(Cl)cc(Cl)c1O` | 3.981 | falling, full curve |
| `CCCN1CCC2(CC1)NC(CO)(CO)CO2` | 5.012 | falling, single point |
| `Cn1c(=O)c2[nH]cnc2n(C)c1=O.[CH2-][C@H](Cc1cccc2cc(C(=O)O)c(=O)oc12)OC.[Hg].[OH-]` | 2.512 | rising, single point |

Data taken from PubChem BioAssay AID912, deposited by NCATS (2007).